The supplement of paper PMC10849652
The other results are listed elsewhere or left out.

By UniProt entry, the sequences of proteins in these tests, tags left out. Where a name states a change or a piece, a line headed by the entry shows the natural chain unless it says otherwise.
UniProt Q8IWU2: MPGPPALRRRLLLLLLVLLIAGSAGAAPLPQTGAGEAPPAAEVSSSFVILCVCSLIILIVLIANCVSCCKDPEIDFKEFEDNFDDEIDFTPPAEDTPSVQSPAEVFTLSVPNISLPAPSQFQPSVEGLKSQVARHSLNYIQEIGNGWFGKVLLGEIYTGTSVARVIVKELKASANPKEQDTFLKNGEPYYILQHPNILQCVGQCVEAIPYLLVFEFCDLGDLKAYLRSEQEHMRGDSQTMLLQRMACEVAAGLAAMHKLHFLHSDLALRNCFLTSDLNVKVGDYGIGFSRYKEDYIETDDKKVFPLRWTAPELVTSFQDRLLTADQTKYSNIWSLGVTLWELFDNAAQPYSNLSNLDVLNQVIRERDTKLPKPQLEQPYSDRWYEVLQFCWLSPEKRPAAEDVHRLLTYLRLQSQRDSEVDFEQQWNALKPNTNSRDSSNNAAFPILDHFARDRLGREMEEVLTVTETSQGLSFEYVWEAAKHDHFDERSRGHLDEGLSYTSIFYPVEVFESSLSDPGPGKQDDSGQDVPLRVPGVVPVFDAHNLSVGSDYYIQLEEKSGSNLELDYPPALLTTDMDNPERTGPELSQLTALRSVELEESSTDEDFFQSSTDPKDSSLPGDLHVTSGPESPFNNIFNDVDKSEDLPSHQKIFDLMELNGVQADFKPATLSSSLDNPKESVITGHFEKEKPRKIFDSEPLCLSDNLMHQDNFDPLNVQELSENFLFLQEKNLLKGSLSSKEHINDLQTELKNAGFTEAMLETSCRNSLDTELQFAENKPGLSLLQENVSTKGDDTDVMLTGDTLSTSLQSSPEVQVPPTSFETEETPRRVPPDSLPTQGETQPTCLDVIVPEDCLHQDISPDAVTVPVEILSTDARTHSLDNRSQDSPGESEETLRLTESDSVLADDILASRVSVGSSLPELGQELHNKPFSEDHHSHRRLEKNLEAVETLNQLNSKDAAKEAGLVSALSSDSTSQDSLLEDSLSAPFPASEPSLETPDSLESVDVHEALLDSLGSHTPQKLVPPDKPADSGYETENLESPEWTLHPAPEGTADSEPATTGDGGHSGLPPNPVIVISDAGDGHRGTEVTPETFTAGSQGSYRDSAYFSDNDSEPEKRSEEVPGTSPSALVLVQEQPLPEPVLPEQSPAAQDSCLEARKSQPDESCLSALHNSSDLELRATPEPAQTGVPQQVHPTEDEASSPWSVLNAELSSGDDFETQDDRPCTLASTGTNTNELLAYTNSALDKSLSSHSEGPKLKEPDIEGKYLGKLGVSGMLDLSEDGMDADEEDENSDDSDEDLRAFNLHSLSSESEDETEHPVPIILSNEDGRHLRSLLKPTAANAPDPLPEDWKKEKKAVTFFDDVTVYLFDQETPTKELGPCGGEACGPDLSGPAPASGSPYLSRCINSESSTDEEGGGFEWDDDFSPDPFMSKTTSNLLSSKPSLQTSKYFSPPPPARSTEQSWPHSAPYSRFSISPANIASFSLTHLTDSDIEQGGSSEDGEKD
UniProt P07864: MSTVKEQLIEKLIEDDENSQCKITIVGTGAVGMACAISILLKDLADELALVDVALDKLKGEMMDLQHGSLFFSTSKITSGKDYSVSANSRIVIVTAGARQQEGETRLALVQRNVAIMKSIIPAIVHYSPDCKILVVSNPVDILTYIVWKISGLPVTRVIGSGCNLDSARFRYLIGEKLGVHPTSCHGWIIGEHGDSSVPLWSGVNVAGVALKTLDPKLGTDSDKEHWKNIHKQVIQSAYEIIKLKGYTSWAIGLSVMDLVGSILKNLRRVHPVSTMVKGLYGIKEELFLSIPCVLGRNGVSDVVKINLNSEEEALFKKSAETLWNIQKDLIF
UniProt Q8IWT6: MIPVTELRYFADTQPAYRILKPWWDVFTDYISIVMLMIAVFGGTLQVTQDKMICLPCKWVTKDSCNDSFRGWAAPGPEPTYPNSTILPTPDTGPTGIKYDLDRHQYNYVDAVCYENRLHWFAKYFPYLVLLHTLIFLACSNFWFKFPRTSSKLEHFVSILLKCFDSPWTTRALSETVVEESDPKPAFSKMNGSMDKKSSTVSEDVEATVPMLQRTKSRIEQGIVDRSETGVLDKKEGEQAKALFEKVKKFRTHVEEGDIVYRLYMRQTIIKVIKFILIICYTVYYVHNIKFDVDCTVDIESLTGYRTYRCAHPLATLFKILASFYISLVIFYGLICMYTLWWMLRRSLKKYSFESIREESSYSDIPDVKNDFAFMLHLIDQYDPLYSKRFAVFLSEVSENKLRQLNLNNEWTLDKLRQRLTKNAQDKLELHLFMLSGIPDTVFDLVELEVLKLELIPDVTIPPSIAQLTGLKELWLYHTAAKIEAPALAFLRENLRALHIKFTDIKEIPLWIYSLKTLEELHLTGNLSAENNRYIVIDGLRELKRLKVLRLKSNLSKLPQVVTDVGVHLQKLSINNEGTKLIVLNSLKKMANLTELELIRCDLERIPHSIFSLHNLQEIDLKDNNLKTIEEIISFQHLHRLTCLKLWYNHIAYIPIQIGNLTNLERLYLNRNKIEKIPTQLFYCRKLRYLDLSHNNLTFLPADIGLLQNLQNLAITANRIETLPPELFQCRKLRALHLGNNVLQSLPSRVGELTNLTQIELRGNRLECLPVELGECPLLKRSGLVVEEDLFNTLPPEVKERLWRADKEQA
UniProt Q9H9A6: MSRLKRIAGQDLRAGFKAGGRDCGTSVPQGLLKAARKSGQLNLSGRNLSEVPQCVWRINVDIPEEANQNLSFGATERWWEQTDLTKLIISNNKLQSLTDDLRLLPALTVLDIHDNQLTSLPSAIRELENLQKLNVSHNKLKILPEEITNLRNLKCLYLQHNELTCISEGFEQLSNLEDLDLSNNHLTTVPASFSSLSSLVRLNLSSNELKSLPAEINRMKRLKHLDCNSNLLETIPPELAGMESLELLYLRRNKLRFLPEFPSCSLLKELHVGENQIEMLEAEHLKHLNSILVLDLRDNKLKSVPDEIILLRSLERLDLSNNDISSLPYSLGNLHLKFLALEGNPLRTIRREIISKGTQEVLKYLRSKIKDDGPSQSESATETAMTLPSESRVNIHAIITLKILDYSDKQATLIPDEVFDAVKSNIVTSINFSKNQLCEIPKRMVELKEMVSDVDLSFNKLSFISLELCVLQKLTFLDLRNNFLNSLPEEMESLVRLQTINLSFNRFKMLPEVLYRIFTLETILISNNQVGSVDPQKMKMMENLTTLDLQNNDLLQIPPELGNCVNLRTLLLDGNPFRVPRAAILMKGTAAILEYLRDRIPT
UniProt O95777: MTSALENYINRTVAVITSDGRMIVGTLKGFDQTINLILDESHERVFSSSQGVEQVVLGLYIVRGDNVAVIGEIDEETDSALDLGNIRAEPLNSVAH
UniProt P30533, whole entry, looked up: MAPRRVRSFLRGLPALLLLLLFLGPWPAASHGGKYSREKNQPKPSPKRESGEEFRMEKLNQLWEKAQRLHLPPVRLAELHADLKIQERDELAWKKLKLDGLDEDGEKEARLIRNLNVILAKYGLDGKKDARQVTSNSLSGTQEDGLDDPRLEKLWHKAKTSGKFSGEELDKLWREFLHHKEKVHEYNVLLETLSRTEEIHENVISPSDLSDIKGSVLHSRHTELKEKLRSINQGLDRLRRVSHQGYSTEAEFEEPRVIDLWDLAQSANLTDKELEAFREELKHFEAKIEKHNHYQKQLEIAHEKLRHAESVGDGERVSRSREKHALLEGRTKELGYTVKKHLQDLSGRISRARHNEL
UniProt P48449: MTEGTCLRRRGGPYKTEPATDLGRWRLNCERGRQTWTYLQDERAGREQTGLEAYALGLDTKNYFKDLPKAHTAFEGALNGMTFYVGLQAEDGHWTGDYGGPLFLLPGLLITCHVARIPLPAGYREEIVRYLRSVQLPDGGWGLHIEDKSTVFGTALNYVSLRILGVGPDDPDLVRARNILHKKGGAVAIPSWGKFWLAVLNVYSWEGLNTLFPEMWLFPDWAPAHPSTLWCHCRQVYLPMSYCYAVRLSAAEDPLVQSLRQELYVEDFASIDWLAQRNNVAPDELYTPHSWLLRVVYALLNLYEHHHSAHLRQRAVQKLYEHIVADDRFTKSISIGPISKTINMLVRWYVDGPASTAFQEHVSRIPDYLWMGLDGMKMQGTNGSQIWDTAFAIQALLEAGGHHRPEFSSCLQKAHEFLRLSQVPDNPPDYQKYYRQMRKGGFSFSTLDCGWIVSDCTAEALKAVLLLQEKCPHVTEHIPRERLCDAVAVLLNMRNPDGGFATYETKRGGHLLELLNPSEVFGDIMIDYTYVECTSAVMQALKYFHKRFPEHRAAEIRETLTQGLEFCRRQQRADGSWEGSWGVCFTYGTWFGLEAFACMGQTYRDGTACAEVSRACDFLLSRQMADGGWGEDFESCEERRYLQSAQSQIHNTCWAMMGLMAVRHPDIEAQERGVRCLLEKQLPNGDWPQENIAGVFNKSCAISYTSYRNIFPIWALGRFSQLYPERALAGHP
UniProt O15116: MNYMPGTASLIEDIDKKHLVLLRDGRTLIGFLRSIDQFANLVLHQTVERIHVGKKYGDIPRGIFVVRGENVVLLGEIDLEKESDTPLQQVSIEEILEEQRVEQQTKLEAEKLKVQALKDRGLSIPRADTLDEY
UniProt Q15048: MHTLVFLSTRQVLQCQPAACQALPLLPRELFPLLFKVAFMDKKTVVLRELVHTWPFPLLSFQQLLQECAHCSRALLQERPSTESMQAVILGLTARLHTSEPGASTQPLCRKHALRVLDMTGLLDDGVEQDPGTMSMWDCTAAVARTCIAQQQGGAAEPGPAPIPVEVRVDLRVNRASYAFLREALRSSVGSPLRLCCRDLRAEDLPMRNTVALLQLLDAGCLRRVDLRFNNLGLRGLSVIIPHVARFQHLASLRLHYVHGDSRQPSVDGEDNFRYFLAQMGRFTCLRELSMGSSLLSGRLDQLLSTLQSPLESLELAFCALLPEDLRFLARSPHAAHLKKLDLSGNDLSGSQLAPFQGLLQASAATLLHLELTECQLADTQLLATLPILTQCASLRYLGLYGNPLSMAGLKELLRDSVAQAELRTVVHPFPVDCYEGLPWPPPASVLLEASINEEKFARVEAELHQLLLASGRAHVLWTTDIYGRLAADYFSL
UniProt Q6P1A2: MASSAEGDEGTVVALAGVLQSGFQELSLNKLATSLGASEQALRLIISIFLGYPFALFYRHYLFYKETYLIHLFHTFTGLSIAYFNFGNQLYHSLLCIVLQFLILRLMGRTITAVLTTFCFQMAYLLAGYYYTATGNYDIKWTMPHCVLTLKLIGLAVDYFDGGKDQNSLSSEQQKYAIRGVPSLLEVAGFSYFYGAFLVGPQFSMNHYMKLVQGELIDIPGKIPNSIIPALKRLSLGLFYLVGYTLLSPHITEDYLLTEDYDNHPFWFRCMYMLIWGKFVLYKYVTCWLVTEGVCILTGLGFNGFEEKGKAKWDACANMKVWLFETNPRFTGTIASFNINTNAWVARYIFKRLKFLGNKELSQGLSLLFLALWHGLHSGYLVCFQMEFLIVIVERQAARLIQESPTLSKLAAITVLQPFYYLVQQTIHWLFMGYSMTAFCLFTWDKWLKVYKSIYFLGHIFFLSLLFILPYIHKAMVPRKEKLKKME
UniProt P49917: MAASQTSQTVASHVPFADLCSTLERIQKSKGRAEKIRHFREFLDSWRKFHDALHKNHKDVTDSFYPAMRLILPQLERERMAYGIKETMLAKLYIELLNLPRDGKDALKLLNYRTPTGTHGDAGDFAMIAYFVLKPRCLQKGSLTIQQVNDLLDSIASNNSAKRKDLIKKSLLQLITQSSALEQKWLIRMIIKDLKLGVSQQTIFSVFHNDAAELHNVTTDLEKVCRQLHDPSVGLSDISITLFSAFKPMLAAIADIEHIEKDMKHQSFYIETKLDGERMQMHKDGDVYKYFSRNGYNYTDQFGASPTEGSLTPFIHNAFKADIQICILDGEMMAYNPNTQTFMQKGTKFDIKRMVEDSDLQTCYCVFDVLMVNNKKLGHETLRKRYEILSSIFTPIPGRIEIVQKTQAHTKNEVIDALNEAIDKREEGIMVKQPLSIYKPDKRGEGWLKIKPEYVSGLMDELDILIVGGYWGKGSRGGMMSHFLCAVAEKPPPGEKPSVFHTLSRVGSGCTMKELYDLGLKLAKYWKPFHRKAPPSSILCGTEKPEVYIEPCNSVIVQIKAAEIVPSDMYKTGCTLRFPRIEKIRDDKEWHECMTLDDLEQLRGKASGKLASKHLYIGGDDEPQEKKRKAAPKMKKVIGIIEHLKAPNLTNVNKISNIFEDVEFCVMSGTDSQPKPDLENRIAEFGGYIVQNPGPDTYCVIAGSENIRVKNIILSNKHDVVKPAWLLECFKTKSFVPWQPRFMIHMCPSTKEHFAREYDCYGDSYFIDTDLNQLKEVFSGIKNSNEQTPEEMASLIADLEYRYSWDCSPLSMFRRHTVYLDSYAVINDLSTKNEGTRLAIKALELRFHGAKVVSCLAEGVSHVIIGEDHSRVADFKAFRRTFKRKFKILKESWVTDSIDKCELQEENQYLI
UniProt P62310: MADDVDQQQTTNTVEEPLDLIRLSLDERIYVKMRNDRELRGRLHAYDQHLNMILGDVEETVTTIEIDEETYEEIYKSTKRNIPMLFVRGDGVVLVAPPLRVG

Compound: C1CCN(C1)C(=O)NC2=CC=CC(=C2)NC3=NC=C(C(=N3)NCCC4=CN=CN4)Br
Assay: log2 fold change, soluble protein after heating vs DMSO (PISA); higher = thermal stabilisation; K562 lysate, 10 uM; active = over 0.2 and 3.5 SD of the protein, either way, in both replicates (recomputed)
Procedure, shortened: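 Values give the log-two fold change in thermal stability against solvent controls, from duplicates. Crude K562 extract at 1 mg/mL protein, made by dounce homogenisation in PBS pH 7.4 with 1 mM MgCl2, was treated with 10 μM compound for 30 min. After 3 min heating across 48°C-58°C, aliquots were pooled, adjusted to 0.5% NP-40 at 4°C and centrifuged at 21,000xg for 90 min. The supernatant was measured by TMTpro 16plex LC-MS/MS with channel sums equalised.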

log2 fold change, inactive:
LIG1 (UniProt P18858) -0.036
LMTK2 (UniProt Q8IWU2) -0.033
LMNA (UniProt P02545) 0.036
LARS2 (UniProt Q15031) 0.03
LINGO1 (UniProt Q96FE5) 0.034
LDB1 (UniProt Q86U70) 0.001
LRRC57 (UniProt Q8N9N7) -0.016
LDHC (UniProt P07864) -0.001
LENG1 (UniProt Q96BZ8) -0.054
LRRC8A (UniProt Q8IWT6) -0.056
LRWD1 (UniProt Q9UFC0) 0.002
LRRC40 (UniProt Q9H9A6) -0.036
LCP2 (UniProt Q13094) 0.025
LRCH3 (UniProt Q96II8) -0.102
LSM8 (UniProt O95777) -0.008
LIN54 (UniProt Q6MZP7) 0.022
LRPAP1 (UniProt P30533) 0.046
LRRC8B (UniProt Q6P9F7) -0.002
LSS (UniProt P48449) -0.094
LRRC8C (UniProt Q8TDW0) 0.046
LPIN1 isoform 7 (UniProt Q14693) 0.038
LRRFIP2 (UniProt Q9Y608) 0.025
LSM6 (UniProt P62312) 0.022
LSM1 (UniProt O15116) 0.059
LMAN1 (UniProt P49257) -0.006
LRRC14 (UniProt Q15048) -0.126
LETM1 (UniProt O95202) -0.006
LMNB1 (UniProt P20700) -0.01
LPCAT3 (UniProt Q6P1A2) -0.109
LIG4 (UniProt P49917) 0.009
LRCH4 (UniProt O75427) 0.081
LMO2 isoform 3 (UniProt P25791) -0.124
LGALS3 (UniProt P17931) -0.136
LSM3 (UniProt P62310) 0.027
LCP1 (UniProt P13796) 0
LCMT2 (UniProt O60294) 0.071
LDAH isoform 2 (UniProt Q9H6V9) -0.032
LIN7C (UniProt Q9NUP9) 0.032

Pulled one by one from the list above (three):
log2 fold change, inactive:
LRPAP1 (UniProt P30533) 0.046
LETM1 (UniProt O95202) -0.006
LRRC8A (UniProt Q8IWT6) -0.056
